Source: PubChem BioAssay AID1259405 (NCATS, 2018)
Shown is a random part of about 50,000 reagents. Of all reagents, about 4,000 (8%) were called active. 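Mouse siRNA library applied to hamster cells; one well for each siRNA.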 A number with no mark means an inactive call. Reagents against one gene are numbered here.

Aim: 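Silenced genes that increase secreted GFP made by CHO cells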 (primary screen)
Cell system: Chinese hamster CHO-K1 ovary cells with stable secreted eGFP expression
Reagents: single siRNA against mouse genes, 0.8 pmol siRNA per well (2 µl of 400 nM stock)
Duration: 3 days
Measured: 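Percent of the per-plate non-targeting control median for intracellular GFP per well by laser scanning cytometry and for cell viability by ATP luminescence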
Direction: GFP, % of control: higher = more GFP per well, higher productivity; viability (ATP), % of control: higher = more viable cells (more ATP)
Active means: 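Called active when intracellular GFP, relative to negative control, is at or above 120%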

gene	reagent no.	GFP, % of control	viability (ATP), % of control
Or6b13 (GeneID 258055)	1	84	49.8
Or6b13 (GeneID 258055)	2	104	73.8
Or6b13 (GeneID 258055)	3	35.9	65.8
Rsrc1 (GeneID 66880)	1	72.8	105
Rsrc1 (GeneID 66880)	2	86.2	104
Rsrc1 (GeneID 66880)	3	70.7	75.8
Adgrf3 (GeneID 381628)	1	87.9	75.1
Adgrf3 (GeneID 381628)	2	57.5	83.8
Adgrf3 (GeneID 381628)	3	50.1	57.4
Zfp868 (GeneID 234362)	1	119	74.7
Zfp868 (GeneID 234362)	2	65.9	53.7
Zfp868 (GeneID 234362)	3	131 (active)	107
Ebf3 (GeneID 13593)	1	121 (active)	121
Ebf3 (GeneID 13593)	2	76.8	114
Ebf3 (GeneID 13593)	3	104	84.3
Zfp954 (GeneID 232853)	1	127 (active)	103
Zfp954 (GeneID 232853)	2	60	78
Zfp954 (GeneID 232853)	3	121 (active)	121

Next part; the last 4 above are carried over.
gene	reagent no.	GFP, % of control	viability (ATP), % of control
Ebf3 (GeneID 13593)	3	104	84.3
Zfp954 (GeneID 232853)	1	127 (active)	103
Zfp954 (GeneID 232853)	2	60	78
Zfp954 (GeneID 232853)	3	121 (active)	121
Cplx4 (GeneID 225644)	1	59.4	70.5
Cplx4 (GeneID 225644)	2	69.3	79.8
Cplx4 (GeneID 225644)	3	101	82.3
Or5v1 (GeneID 258325)	1	107	71.6
Or5v1 (GeneID 258325)	2	69.5	79
Or5v1 (GeneID 258325)	3	96	47.4
Dock6 (GeneID 319899)	1	92.5	68.2
Dock6 (GeneID 319899)	2	99.8	88.8
Dock6 (GeneID 319899)	3	62	60.7
Ifit3 (GeneID 15959)	1	66.9	82.9
Ifit3 (GeneID 15959)	2	159 (active)	65.4
Ifit3 (GeneID 15959)	3	52.5	89.4
Tspan10 (GeneID 208634)	1	104	74.4
Tspan10 (GeneID 208634)	2	86.3	71.2
Tspan10 (GeneID 208634)	3	80.7	60.1
Arl2 (GeneID 56327)	1	116	82.2
Arl2 (GeneID 56327)	2	75.4	73.2
Arl2 (GeneID 56327)	3	102	76.6
